Experimental data: article doi:10.1101/491274
These are yes or no findings as the source states them, for the method shown. In cells and extracts the contact can be indirect. Where a sequence is shown, tags or fusion partners need not be part of it.

Experiments:
Test in all cases: co-IP
[1] = biological target: T1, FLAG-tagged human wildtype La (human) (UniProt P05455)
T1 sequence: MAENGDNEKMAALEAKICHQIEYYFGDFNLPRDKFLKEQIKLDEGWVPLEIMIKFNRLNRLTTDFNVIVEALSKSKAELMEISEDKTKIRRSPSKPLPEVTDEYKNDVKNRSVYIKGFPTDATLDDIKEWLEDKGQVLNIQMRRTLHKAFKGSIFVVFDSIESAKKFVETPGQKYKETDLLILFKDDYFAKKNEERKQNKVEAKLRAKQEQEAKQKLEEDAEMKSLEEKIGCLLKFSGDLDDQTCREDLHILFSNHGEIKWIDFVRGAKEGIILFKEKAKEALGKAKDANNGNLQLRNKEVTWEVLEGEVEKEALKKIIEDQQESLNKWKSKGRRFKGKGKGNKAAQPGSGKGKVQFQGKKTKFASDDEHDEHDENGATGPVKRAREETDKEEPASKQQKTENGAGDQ

[2] = biological target: T2, human wildtype LARP6 (precipitated with anti-FLAG antibody) (human) (UniProt Q9BRS8)
T2 sequence: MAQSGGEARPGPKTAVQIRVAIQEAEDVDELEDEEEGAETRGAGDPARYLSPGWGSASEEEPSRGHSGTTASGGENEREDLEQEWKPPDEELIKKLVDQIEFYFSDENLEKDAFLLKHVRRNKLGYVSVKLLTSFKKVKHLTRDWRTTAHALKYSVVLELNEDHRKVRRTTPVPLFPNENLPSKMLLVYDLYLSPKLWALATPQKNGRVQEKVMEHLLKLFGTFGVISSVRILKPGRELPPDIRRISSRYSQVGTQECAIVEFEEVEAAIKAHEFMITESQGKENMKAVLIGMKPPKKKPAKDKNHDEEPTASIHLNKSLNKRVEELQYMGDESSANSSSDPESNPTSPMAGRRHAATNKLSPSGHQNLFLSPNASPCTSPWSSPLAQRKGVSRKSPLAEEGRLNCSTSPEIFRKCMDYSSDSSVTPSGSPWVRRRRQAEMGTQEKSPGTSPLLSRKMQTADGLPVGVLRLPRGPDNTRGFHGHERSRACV

[3] = biological target: T3, human wildtype LARP7 (precipitated with anti-FLAG antibody) (human) (UniProt Q4G0J3)
T3 sequence: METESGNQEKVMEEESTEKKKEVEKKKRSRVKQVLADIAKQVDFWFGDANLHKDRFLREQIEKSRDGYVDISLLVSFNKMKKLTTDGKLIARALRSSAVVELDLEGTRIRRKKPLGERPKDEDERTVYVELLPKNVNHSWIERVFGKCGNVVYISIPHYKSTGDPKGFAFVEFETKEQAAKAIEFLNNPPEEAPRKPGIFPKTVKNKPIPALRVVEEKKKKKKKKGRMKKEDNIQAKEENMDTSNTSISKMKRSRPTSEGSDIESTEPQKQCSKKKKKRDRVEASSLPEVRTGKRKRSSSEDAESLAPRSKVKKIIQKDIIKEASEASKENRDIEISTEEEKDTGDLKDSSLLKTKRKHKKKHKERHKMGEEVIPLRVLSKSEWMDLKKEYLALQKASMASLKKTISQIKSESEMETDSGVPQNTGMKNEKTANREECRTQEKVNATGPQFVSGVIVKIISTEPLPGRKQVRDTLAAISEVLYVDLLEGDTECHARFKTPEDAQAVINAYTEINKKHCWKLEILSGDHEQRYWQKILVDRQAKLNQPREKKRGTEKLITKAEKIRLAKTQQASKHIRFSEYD

binding [1]: no binding
binding [2]: no binding
binding [3]: no binding
Substance: endogenous poly(A)-binding protein (PABP) (human (endogenous in HEK293T))
